# Laboratory results published in article PMC10281519.
# Chains of the proteins cited; added tags and fusions are not shown. Lines headed by an entry give the natural chain unless they say otherwise; changes in a name come on top. A line that says so, or that is headed by a name, gives the form on record, which may keep a tag or linker. Residues count along the entry.
# UniProt Q9UNF0, residues 426-486: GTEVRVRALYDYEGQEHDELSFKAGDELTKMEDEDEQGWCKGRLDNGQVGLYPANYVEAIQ
# endogenous N-cadherin in T24 cells (P19022, residues 160-906): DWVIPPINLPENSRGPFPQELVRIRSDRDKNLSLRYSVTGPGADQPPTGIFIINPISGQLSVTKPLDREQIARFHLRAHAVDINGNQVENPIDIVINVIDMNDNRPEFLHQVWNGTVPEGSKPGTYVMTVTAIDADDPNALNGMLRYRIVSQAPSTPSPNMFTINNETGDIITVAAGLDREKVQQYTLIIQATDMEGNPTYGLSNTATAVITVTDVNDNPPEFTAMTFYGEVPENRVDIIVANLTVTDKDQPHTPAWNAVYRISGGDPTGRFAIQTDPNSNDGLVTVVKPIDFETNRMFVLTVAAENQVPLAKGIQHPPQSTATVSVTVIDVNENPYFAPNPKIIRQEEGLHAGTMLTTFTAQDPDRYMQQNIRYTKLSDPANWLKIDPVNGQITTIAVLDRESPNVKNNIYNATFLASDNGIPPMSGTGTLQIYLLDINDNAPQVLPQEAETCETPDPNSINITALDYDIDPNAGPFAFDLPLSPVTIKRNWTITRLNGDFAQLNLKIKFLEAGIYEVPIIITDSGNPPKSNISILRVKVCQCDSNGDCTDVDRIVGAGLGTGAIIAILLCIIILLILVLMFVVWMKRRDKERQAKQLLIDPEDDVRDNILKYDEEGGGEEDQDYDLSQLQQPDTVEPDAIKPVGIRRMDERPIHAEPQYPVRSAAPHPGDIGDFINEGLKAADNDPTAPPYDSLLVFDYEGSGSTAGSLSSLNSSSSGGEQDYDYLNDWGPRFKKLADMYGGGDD
# GFP-tagged N-cadherin cytoplasmic domain, wild type (P19022, residues 746-906): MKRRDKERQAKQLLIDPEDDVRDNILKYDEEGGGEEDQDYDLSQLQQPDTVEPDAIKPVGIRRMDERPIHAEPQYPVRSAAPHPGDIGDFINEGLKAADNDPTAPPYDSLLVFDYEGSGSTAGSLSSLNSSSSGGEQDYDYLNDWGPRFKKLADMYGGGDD
# GFP-tagged N-cadherin cytoplasmic domain P818/821A (P19022-1, form named): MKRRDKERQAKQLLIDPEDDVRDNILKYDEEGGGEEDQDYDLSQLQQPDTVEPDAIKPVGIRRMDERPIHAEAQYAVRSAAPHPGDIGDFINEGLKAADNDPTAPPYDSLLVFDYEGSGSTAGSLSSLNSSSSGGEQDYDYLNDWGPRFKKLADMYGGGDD
# GFP-tagged N-cadherin cytoplasmic domain P847/850/851A (P19022-1, form named): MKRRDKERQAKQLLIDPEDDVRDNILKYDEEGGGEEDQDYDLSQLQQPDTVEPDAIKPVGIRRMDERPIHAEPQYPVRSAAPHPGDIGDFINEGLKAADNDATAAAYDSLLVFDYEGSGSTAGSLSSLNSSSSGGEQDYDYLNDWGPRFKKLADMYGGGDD
# No constants are given. Whether binding was seen depends on the method and setting. In cells and extracts the contact can be indirect. Some entries that bind do so weakly or less than the wild type.
# How the values were obtained:
# [1] = target: GST-tagged pacsin 2 SH3 domain (human) (UniProt Q9UNF0); test: pull-down; GST–pacsin 2 SH3 or GST beads (10 µl bed) as bait; 170 µl extract of transfected HEK293T cells; 20 mM Tris-HCl pH 7.5, 150 mM NaCl, 10% glycerol, 5 mM EDTA, 2% Triton X-100; 1 h at 4°C; anti-GFP immunoblot; only the target purified
# [2] = target: GST-tagged pacsin 2 SH3 domain (human) (UniProt Q9UNF0); test: pull-down; GST–pacsin 2 SH3 or GST on glutathione beads as bait; T24 cell lysate; bound endogenous N-cadherin detected by anti-N-cadherin immunoblot; only the target purified
binding [1],binding [2],Substance
binds,,GFP-tagged N-cadherin cytoplasmic domain P818/821A (from UniProt P19022-1 746-906) (domain or fragment)
binds,,GFP-tagged N-cadherin cytoplasmic domain P847/850/851A (from UniProt P19022-1 746-906) (domain or fragment)
binds,,"GFP-tagged N-cadherin cytoplasmic domain, wild type (from UniProt P19022-1 746-906) (domain or fragment)"
,binds,endogenous N-cadherin in T24 cells (from UniProt P19022-1 160-906)
